“And” between values parts separate entries of the source, which are not always exact repeats. Equal values may be shown once. This list was built around the results that the source calls inconclusive (neither active nor inactive); the mix of calls is not that of the screen. Potencies of inconclusive entries are doubtful fits and often do not repeat. The source made the active and inactive calls. Calls follow the shape of the dose curve; as a rule, active = well fitted inhibition curve with a large enough effect in the repeat runs; inconclusive = weak or mixed curves; inactive = no such curve, though single readings can be large or run the other way. Peptide text beside a SMILES is read from it.
These compounds were tested against Cytochrome P450 2D6 (Homo sapiens) (UniProt P10635) (assay: Cytochrome P450 Family 2 Subfamily D Member 6 (CYP2D6) small molecule antagonists: luciferase reporter qHTS assay (AID 1671196; also: nearly all actives have a fitted effect of over 50% in size)). Conditions: P450-Glo CYP2D6 enzyme assay, luciferin luminescence, 1 h; series mostly up to 115 µM.
Summary of the method: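 Luminogenic proluciferin substrate, CYP2D6 enzyme; 10 min RT preincubation with compound, NADPH regeneration system added, 1 h RT. Stop/detection reagent, 20 min RT, luminescence read (RLU). Signal proportional to CYP activity.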
Potency is read from the fitted curve at half-maximal effect.

Sequences of proteins named here, by UniProt entry; tags and fusion partners are left off.
UniProt P10635, whole entry, looked up: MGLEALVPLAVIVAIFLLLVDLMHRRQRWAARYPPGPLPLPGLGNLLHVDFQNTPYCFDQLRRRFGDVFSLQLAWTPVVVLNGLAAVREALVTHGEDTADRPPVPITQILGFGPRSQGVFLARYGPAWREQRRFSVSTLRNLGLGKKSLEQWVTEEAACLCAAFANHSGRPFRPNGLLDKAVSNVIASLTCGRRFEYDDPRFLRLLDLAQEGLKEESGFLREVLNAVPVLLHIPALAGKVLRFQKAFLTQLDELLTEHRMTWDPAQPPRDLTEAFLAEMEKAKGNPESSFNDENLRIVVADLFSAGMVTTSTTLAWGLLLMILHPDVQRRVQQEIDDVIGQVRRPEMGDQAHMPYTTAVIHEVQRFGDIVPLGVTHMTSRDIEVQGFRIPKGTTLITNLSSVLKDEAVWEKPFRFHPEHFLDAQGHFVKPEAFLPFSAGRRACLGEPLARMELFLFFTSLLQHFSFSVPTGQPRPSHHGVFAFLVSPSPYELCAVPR
UniProt P33261, whole entry, looked up: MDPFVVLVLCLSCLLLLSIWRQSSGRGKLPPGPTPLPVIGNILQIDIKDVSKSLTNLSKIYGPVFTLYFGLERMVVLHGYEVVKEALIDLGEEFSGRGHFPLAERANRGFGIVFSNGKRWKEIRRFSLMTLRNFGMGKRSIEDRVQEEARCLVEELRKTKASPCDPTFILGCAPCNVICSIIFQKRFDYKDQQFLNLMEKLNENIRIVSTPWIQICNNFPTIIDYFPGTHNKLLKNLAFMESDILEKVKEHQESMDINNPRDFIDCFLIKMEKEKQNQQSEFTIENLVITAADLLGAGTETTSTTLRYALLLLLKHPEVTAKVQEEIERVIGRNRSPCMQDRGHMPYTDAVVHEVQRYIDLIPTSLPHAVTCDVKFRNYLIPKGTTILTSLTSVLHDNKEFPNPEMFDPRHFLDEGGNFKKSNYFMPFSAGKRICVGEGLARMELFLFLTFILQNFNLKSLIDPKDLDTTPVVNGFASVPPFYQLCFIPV

SMILES | Potency
CC(C)(C)CC(C)(C)c1ccccc1O | inconclusive: 56.7 µM [inhibitor, partial curve]
CC1CC(OC(=O)c2ccccc2O)CC(C)(C)C1 (configuration not stated) | inconclusive: 17.8 µM [inhibitor, partial curve]
CC1=C(/C=C/C(C)=C/C=C/C(C)=C\C=O)C(C)(C)CCC1 | inconclusive: 67.2 µM [inhibitor, partial curve, poor fit]
Cc1cc(O)c(C(C)(C)C)cc1C(C)(C)C | inconclusive: 71 µM [inhibitor, partial curve]
CC1=C(/C=C/C(C)=C/C=C/C(C)=C/C(=O)Nc2ccc(O)cc2)C(C)(C)CCC1 | inconclusive: 81.7 µM [inhibitor, single point]
CC(C)(C)c1ccc(O)c(C(C)(C)C)c1 | inconclusive: 35.6 µM [inhibitor, partial curve]
Cc1cc(F)ccc1-c1cc(N2CC[C@@H](O)[C@H]2CO)ncc1N(C)C(=O)C(C)(C)c1cc(C(F)(F)F)cc(C(F)(F)F)c1 | inconclusive: 49.5 µM [inhibitor, partial curve]
Clc1ccccc1C(c1ccccc1)(c1ccccc1)n1ccnc1 | inconclusive: 43.6 µM [inhibitor, partial curve, poor fit]
Clc1ccc(C(c2ccccc2Cl)C(Cl)Cl)cc1 (configuration not stated) | inconclusive: 35.6 µM [inhibitor, partial curve] and inconclusive: 30.9 µM [inhibitor, partial curve, poor fit]

These compounds were tested against Cytochrome P450 2C19 (Homo sapiens) (UniProt P33261) (assay: Cytochrome P450 Family 2 Subfamily C Member 19 (CYP2C19) small molecule antagonists: luciferase reporter qHTS assay (AID 1671197; also: nearly all actives have a fitted effect of over 65% in size)). Conditions: P450-Glo CYP2C19 enzyme, luciferin luminescence, 1 h; series mostly up to 115 µM.
Summary of the method: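 Light output is proportional to CYP2C19 activity: proluciferin substrate is converted to luciferin, then detected by a luciferin detection reagent that also stops the 1 h, 37C NADPH-driven reaction. Ketoconazole serves as positive control.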

SMILES | Potency
COC(=O)[C@H](Cc1ccccc1)NC(=O)[C@@H](N)CC(=O)O (H-Asp-Phe-OMe) | inconclusive: 85 µM [inhibitor, single point]
NC(=O)C1(N2CCCCC2)CCN(CCCN2c3ccccc3CCc3ccc(Cl)cc32)CC1 | inconclusive: 43.6 µM [inhibitor, single point]
N#Cc1nc(Cl)c(Cl)c(Cl)c1Cl | inconclusive: 89.4 µM [inhibitor, single point]
CC(C)(C)NC(=O)[C@@H]1C[C@@H]2CCCC[C@@H]2CN1C[C@@H](O)[C@H](Cc1ccccc1)NC(=O)[C@H](CC(N)=O)NC(=O)c1ccc2ccccc2n1 | inconclusive: 90.5 µM [inhibitor, single point]
CC(C)(c1cc(Br)c(O)c(Br)c1)c1cc(Br)c(O)c(Br)c1 | inconclusive: 84.6 µM [inhibitor, single point]
Clc1ccc(C(c2ccccc2Cl)C(Cl)Cl)cc1 (configuration not stated) | active: 1.59 µM and active: 776 nM
CCCCCCCC/C=C/CCCCCCCC1=NCCN1CCO | inconclusive: 31.7 µM [inhibitor, single point]
CCN=c1cc2oc3cc(NCC)c(C)cc3c(-c3ccccc3C(=O)OCC)c-2cc1C | active: 7.94 µM and active: 10 µM

Source: PubChem BioAssay (Tox21)
